Test results reported in patent US20240050407A1, “METHODS FOR DELAY OF EJACULATION IN HUMAN MALES” (priority 2020, published 2024).
At least one structure is not confirmed: it was looked up by name or label, or the drawing left a doubt.

Test system: healthy human male subjects
Test: Ejaculation latency in healthy human males after pure mesembrine
Format: in vivo
Experimental: Experiments were performed to determine the effects of pure mesembrine on ejaculation in male subjects. 0.5 mg, 1 mg, 2.5 mg, and 5 mg doses of pure mesembrine (Cayman Chemical Company, MI, USA) were administered by oral, nasal or sublingual routes to healthy human male subjects. The formulation for oral (swallowed) and sublingual (held under tongue for 5 minutes) was 2 mg mesembrine/mL 40% aqueous for oral and sublingual. The nasal spray formulation was 0.4 mg mesembrine/mL 1% w/w NaCl saline delivered via metered nasal spray device. Mesembrine was administered 20 minutes prior to sexual activity. The sexual activity was either solo masturbation (“self”) or partnered intercourse with a female partner (“partnered”). Latency time of ejaculation was measured and calculated by time from start of sexual activity to ejaculation. […] In all test cases, ejaculation coincided with orgasm. In all cases where ejaculation was not achieved, orgasm was also not achieved.

COc1ccc([C@@]23CCC(=O)C[C@@H]2N(C)CC3)cc1OC [Mesembrine, mesembrine]
Latency time (min, sec) (Subject A, 77 kg, 0.5 mg, Self, sublingual (5 min under tongue), 20 min prior to sexual activity): 14:40 min, sec
Latency time (min, sec) (Subject A, 77 kg, 1 mg, Self, sublingual (5 min under tongue)): 18:02 min, sec
Latency time (min, sec) (Subject B, 75 kg, 0.5 mg, Self, oral): 17:00 min, sec
Latency time (min, sec) (Subject D, 70 kg, 0.05 mg, Self, nasal spray (in aqueous 1% w/w NaCl)): 18:38 min, sec
Latency time (min, sec) (Subject D, 70 kg, 1 mg, Self, oral): 10:42 min, sec
Latency time (min, sec) (Subject D, 70 kg, 2.5 mg, Partnered, oral): 29:49 min, sec
Latency time (min, sec) (Subject D, 70 kg, 2.5 mg, Self, oral spray): 24:32 min, sec
